Data from PMC4045890.
These are yes or no findings as the source states them, for the method shown. In cells and extracts the contact can be indirect. Some entries that bind do so weakly or less than the wild type. Where a sequence is shown, tags or fusion partners need not be part of it. Each block holds one binder with its values, some of them ahead of it.

Legend:
[1] = molecular target: T1, VN-tagged Fep1 (S. pombe) (UniProt Q10134); experiment: split reporter; BiFC with Venus fragments VN and VC in living S. pombe cells, iron-starved and iron-replete; fluorescence microscopy with Hoechst stain
T1 sequence: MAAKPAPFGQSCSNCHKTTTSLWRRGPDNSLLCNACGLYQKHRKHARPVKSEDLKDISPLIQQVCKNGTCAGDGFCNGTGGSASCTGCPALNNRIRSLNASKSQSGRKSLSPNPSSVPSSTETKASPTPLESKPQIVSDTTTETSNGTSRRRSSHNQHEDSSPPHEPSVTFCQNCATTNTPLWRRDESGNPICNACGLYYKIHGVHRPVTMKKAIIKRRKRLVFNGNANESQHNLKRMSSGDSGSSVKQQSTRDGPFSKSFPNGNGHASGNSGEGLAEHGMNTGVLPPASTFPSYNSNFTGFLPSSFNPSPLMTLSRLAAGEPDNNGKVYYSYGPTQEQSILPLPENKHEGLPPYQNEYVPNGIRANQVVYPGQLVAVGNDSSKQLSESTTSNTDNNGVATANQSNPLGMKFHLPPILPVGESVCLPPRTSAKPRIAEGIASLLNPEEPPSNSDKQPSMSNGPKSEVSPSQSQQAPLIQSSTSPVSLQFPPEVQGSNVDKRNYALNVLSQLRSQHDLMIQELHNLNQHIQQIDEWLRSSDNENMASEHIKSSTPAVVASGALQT

[2] = molecular target: T2, TAP-tagged Fep1 (S. pombe) (UniProt Q10134); experiment: co-IP; TAP pull-down: whole-cell extracts (~2.7 mg protein) of S. pombe cells co-expressing the tagged proteins, treated with Dip (250 µM) or FeCl3 (100 µM) for 30 min; IgG-Sepharose 6 Fast-Flow beads hold TAP or TAP-Fep1, 18 h at 4°C; lysis buffer 10 mM Tris-HCl pH 7.9, 0.1% Triton X-100, 0.5 mM EDTA, 20% glycerol, 100 mM NaCl; immunoblot with anti-Myc, anti-GFP and anti-α-tubulin
T2 sequence: T1 sequence

binding [1]: no binding
B1: Ctr4-VC (protein, UniProt O94722 1-289)
chain: MSFFSAAKQSLGNSLIKLGTSMAQNSQGPVDDSSLSQLENLLPPLQILTARAAMAAMNMSNDTSMSGMNMTNSTTPMSGMNMTNSTTSMSGMNMSNSTTSMSGMNMTNTTTTAKASSCKLSMYWNWYTIDACFITKHWHITSKHMFVGSIFGIIFMMMALELVRRGQREFDRWCVRRFSPASNSCCHSGAPVHSGPSMALRIFLHFLRSCFYLVQYIVAYIAMLLAMYYNGYVILFLFCGTFFGYFLFGADTISTKASSSVQTKTIVQVADEKHEHDSSQYSDTTPTTE

binding [2]: binds
B2: GFP-tagged Grx4 (protein, UniProt O74790 1-244)
chain: MSVEITFVEQFQEILQNGKEQIILLNFYAPWAAPCKQMNQVFDQFAKDTKNAVFLKIEAEKFSDIAESFDVNAVPLFVLIHGAKVLARISGANPQKLKAAIDEYIQPLISQISSTNASVETQVNSVQTTNTTSNTSKAPNGLDSELNERLSTLTNAHNVMLFLKGTPSEPACGFSRKLVGLLREQNVQYGFFNILADDSVRQGLKVFSDWPTFPQLYIKGEFVGGLDIVSEMIENGELQEMLPN
